Measurements reported in PubChem BioAssay AID540275 (National Center for Advancing Translational Sciences (NCATS), 2011).
Hit rate of the full screen: of about 320,000 compounds, about 620 (0.19%) were called active. The shares of active, inactive and inconclusive entries below differ from those in the screen. Rule as the data show it: active = activation above about 80%; inconclusive = between about 30% and that limit; inactive = weaker than that.

By UniProt entry, the sequences of proteins in these tests, tags left out.
UniProt Q8NER1, whole entry, looked up: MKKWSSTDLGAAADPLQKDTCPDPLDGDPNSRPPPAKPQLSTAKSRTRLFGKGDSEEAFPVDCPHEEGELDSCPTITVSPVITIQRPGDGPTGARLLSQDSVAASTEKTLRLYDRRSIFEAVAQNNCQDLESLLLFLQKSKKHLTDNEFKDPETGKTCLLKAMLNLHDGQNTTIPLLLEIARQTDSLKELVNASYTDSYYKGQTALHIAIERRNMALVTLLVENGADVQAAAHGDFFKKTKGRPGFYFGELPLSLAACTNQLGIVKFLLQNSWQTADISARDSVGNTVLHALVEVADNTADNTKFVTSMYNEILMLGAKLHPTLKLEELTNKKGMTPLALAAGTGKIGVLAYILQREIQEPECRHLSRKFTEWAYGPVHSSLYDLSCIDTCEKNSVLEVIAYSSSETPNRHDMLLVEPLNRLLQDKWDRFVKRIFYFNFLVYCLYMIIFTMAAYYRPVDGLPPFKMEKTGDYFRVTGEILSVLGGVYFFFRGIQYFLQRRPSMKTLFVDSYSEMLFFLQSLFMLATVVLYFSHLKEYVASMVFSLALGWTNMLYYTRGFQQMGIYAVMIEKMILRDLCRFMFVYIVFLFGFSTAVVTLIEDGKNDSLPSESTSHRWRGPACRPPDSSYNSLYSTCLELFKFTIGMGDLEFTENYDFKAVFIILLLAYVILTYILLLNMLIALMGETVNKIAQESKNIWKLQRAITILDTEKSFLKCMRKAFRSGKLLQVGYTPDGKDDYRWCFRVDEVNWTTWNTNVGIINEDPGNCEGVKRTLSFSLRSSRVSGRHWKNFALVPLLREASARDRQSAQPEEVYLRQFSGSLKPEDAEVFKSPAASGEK

biological target: Transient receptor potential cation channel subfamily V member 1 (Homo sapiens) (UniProt Q8NER1); test: HTS Assay for Compounds that Act as Agonists of the Vanilloid Receptor 1; conditions: TRPV1-expressing cells, Fluo-8 calcium influx, agonist mode; at 8.33 µM, active compounds read high; also: 0% is about no effect
How it was run: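 Fluo-8 calcium influx in TRPV1-expressing cells, kinetic read (ex 480/em 520 nm). Compound added and read 3 min for agonist activity, followed by capsaicin at EC20 final and 2 min further read for enhancement.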

SMILES | activation
CC(=O)/C(N=Nc1ccc(SC(F)F)cc1)=C(\C)O | inconclusive: 41.5%
CCOC(=O)Cc1csc(NC(=O)c2cc3c(s2)CCCC3)n1 | inconclusive: 31.1%
CSc1cnn(Cc2ccccc2)c(=O)c1SCc1ccccc1 | inconclusive: 74%
O=C(CSc1nnc(-c2ccccc2)n1-c1ccccc1)c1cccs1 | inconclusive: 55.8%
Cc1ccc(NC(=O)CN(C)Cc2c(O)ccc3ccccc23)cc1 | inconclusive: 51.1%
CCOC(=O)c1c(C)c(C(=O)Nc2ccc3c(c2)OCO3)c(C)n1C | inconclusive: 35.9%
CC(C)CN1C(=O)C(=O)N(CC(=O)c2ccc3c(c2)CCCC3)C1=O | inactive: 15.9%
S=C(NCc1ccccc1Cl)Nc1ccccc1Cl | inconclusive: 52.7%
CCS(=O)(=O)Nc1c(C(=O)OC)[nH]c2ccccc12 | inactive: -2.65%
O=C(CSc1nc2ccccc2s1)NCC1CCCO1 (stereo not given) | inactive: 0.6%
O=C(CN1CCCCC1)Nc1nc(-c2ccccc2)cs1 | inconclusive: 55.9%
Cc1ccc(N2CCN(C(=O)c3cccs3)CC2)cc1C | inconclusive: 44.6%
COc1cccc(OCc2cc(C(=O)NCc3ccc4c(c3)OCO4)no2)c1 | inconclusive: 38%
Cc1ccc(NC(=O)c2sc(N)nc2C)cc1 | inconclusive: 33%
Cc1ccc(N2C(=O)CC(Sc3nc4ccccc4o3)C2=O)cc1Cl (stereo not given) | inconclusive: 31%
Fc1ccc(/C=C\c2nccc3c2[nH]c2ccccc23)cc1 | inconclusive: 55.8%
Cc1cnc(NC(=O)c2nn(C)cc2[N+](=O)[O-])s1 | inactive: 0.166%
Cc1ccc(NC2CCCN(C(=O)c3ccc(F)cc3)C2)cc1C (stereo not given) | inconclusive: 51%
CNC(=S)N(C)/N=C1/C(=O)N(Cc2c(Cl)cccc2Cl)c2ccccc21 | inconclusive: 36.3%
O=C(C1=C[C@@H](c2ccccc2)C[C@@H](OCc2ccc(CO)cc2)O1)N1CCCCCCC1 | active: 88.2%
Cc1ccc2oc(-c3cccc(NC(=S)NC(=O)/C=C/c4ccco4)c3)nc2c1 | inactive: 9.91%
O=C(Nc1ccc(F)cc1)c1cccnc1NCCc1ccccc1 | inconclusive: 34.7%
CC(C)NC(=O)Cn1cc(C(=O)COc2ccccc2)c2ccccc21 | inconclusive: 34%

SMILES | activation
COc1ccc(C(=O)NCCc2nnc3ccc(SCC(=O)NCc4ccc(F)cc4)nn23)cc1 | inconclusive: 56.4%
Cc1cccc(NC2SC(=O)N(CC(=O)O)C2=O)c1 (stereo not given) | inactive: 2.53%
Cc1ccccc1OCC(=O)N/N=C/c1c(C)nn(-c2ccccc2)c1Cl | inactive: 2.49%
Cc1cc(=O)n(CC(=O)NC2CC2)c2c1c(C)nn2-c1ccccc1 | inconclusive: 39.1%
COc1ccc(NC(=O)N2CCC(n3nnc4cc(C)ccc43)CC2)cc1 | inconclusive: 60.5%
CC(C)OCCCNC(=S)N1CCC(C(=O)c2ccc(Cl)cc2)CC1 | inactive: 6.02%
O=C(Nc1cccnc1)c1ccc(S(=O)(=O)c2ccccc2)cc1 | inconclusive: 30.3%
O=C1C=C(c2ccc3c(c2)OCO3)C[C@@H](c2ccc3c(c2)OCO3)C1 | inconclusive: 43.9%
NC(N)=NC(N)=Nc1cccc2ccccc12 | inactive: -3.09%
CN(C)c1ccc(/C=C/C(=O)c2ccc3c(c2)OCO3)cc1 | inconclusive: 68.1%
C/C(=N\Nc1ccccn1)c1ccc(C(C)C)cc1 | inconclusive: 69.3%
Cc1cc(C(=O)OC2CCOC2=O)c2ccccc2n1 (stereo not given) | inconclusive: 63.7%
C/C(CC(=O)Nc1ccc(N(C)C)cc1)=N\NC(=O)C(=O)NCc1ccccc1 | inactive: 0.681%
COc1ccc(-n2c(C)nc3cc(C(=O)NCCN4CCOCC4)ccc32)cc1 | inactive: 0.906%
Cc1cc(C)c(C)c(S(=O)(=O)N2CCN(c3ccccn3)CC2)c1C | inconclusive: 30.7%
O=C(OCc1nnc(-c2ccc(Cl)cc2)o1)C12CC3CC(CC(O)(C3)C1)C2 | inactive: 4.33%
COc1ccc(CCNC(=S)NCc2ccc(Cl)c(Cl)c2)cc1OC | active: 81.4%
Cc1oc(-c2cccc3ccccc23)nc1CN1CCC[C@H]1CO | inactive: 5.41%
O=c1oc2c(O)cccc2cc1-c1nc2ccccc2[nH]1 | active: 85%
CN(Cc1ccccc1F)C(=O)CCNC(=O)c1ccc(C(C)(C)C)cc1 | inconclusive: 52.3%
CN(C)c1ccc(/C=N/NC(=O)c2ccccn2)cc1 | inconclusive: 32.4%
N/C(=N\OC(=O)c1ccc2ccccc2c1)c1ccccn1 | inconclusive: 47.2%
O=C(OCc1ccc([N+](=O)[O-])cc1)c1cc(S(=O)(=O)N2CCCCC2)ccc1N1CCOCC1 | inactive: 6.91%

SMILES | activation
O=[N+]([O-])c1ccc2nc(-[n+]3c(-c4ccccc4)cc(-c4ccccc4)cc3-c3ccccc3)[nH]c2c1 | inactive: 11.9%
Cc1oncc1-c1cn2ccccc2n1 | inactive: -1.84%
Cc1cccc(N=Nc2c(C)nn(-c3ccccc3)c2N)c1C | inconclusive: 62.4%
CC(C(=O)Nc1ccccc1)N(C)CCOc1ccc(Br)cc1 (stereo not given) | inconclusive: 34.8%
CCSc1nsc(NC(=O)Nc2cccc(F)c2)n1 | inconclusive: 58.6%
COc1ccc(/C=N\NC(=O)c2ccccc2F)cc1COc1ccc(F)cc1 | inconclusive: 44.3%
COc1ccc(-c2nn(-c3ccccc3)cc2CNC(=O)c2cccc([N+](=O)[O-])c2)cc1 | inconclusive: 37%
Cc1cc(C(=O)CCC(=O)N2CCN(c3ccccc3F)CC2)c(C)s1 | inconclusive: 51.5%
COc1ccc(OC)c(CN2CCN(CC(=O)Nc3ccccc3C(=O)NC3CC3)CC2)c1 | inactive: 3.64%
Cc1cc(NC(=O)CC#N)n(-c2nc3ccccc3[nH]2)n1 | inactive: -0.252%
CCNC(=O)C/C(C)=N/NC(=O)C12CC3CC(CC(C3)C1)C2 | inconclusive: 33.2%
COc1ccc(Cn2c(=N)c(C(=O)NCC3CCCO3)cc3c(=O)n4ccccc4nc32)cc1 (stereo not given) | inconclusive: 38.2%
CCN1CCCc2cc(CN(CCN3CCOCC3)C(=S)Nc3cccc(C)c3)ccc21 | inactive: 18.3%
Cc1ccsc1/C=C/C1=Cc2c(sc(NC(=O)CSc3n[nH]c(N)n3)c2C#N)C(C)(C)C1 | inactive: 11.7%
COC(=O)c1ccc(CN2CCc3ccc(NC(=O)c4ccncc4)cc3C2)cc1 | inconclusive: 48.9%
CC(C)(CNC(=O)CCC1CCCC1)CNC(=O)CCC1CCCC1 | inconclusive: 37%
Cc1ccc(-n2c(-c3ccncc3)n[nH]c2=S)cc1 | inactive: 11.3%
CCCCN1CN(Cc2ccco2)CNC1=S | inactive: 0.476%
O=C(/C=C/c1ccc(F)cc1)NC(=S)N1CCN(Cc2ccccc2)CC1 | inconclusive: 46.5%
Fc1ccccc1N1CCN(Cc2cc(-c3ccccc3)on2)CC1 | inconclusive: 32.1%
CC(C)n1cnc2c(N(C)c3ccccc3)nc(N(CCN(C)C)Cc3ccccc3)nc21 | inconclusive: 37.9%
CCc1ccc2[nH]c3nc(SCCN4CCOCC4)nnc3c2c1 | inconclusive: 32.4%
O=C(CSc1oc(-c2ccccc2)nc1S(=O)(=O)c1ccc(F)cc1)NCC1CCCO1 (stereo not given) | inconclusive: 36.9%

Single values from above:
Under activation, Cc1ccsc1/C=C/C1=Cc2c(sc(NC(=O)CSc3n[nH]c(N)n3)c2C#N)C(C)(C)C1 is listed with inactive: 11.7%
Under activation, Cc1ccc(NC(=O)CN(C)Cc2c(O)ccc3ccccc23)cc1 is listed with inconclusive: 51.1%
Under activation, Fc1ccc(/C=C\c2nccc3c2[nH]c2ccccc23)cc1 is listed with inconclusive: 55.8%

(list continues)

SMILES | activation
N#Cc1c(N2CCCC(O)C2)nc(N)c2c(N)nc3c(c12)CC(=O)N3C12CC3CC(CC(C3)C1)C2 (stereo not given) | inactive: -0.701%
Cc1ccc(N(CC(=O)NCCSc2ccccn2)S(=O)(=O)c2ccc(F)cc2)cc1 | inconclusive: 31%
COc1cccc(-c2cc(C(=O)N3CCN(S(=O)(=O)c4ccc(Br)cc4)CC3)[nH]n2)c1 | inactive: 6.25%
COc1ccc(CNC(=S)NCc2ccc(OC(C)C)cc2)cc1 | inconclusive: 42.7%
CC(C)CCSc1nc2ccccc2[nH]1 | inconclusive: 36.9%
CCOc1cc(C(=O)Nc2ccccc2F)cc(Br)c1OCC | inconclusive: 59.2%
Cc1ccc(Nc2nc(N)nc(CN3CCN(Cc4ccc5c(c4)OCO5)CC3)n2)cc1Cl | inactive: 0.228%
Cc1cc(N2CCOCC2)n2nc(C)c(-c3ccccc3Cl)c2n1 | inconclusive: 31.2%
COc1cc(/C=C/C(=O)OCC(=O)Nc2cc(S(=O)(=O)N3CCCCC3)ccc2C)ccc1O | inconclusive: 32.5%
CS(=O)(=O)c1ccc(C(=O)Nc2ccc(S(=O)(=O)N3CCCCC3)cc2)cc1 | inconclusive: 62%
CN1/C(=C/C(=S)NC(=O)C2(C)CC2(Cl)Cl)C(C)(C)c2ccccc21 (stereo not given) | inconclusive: 42.1%
COc1ccc(CCNC(=O)COC(=O)Cc2cccc(F)c2)cc1 | inconclusive: 31.7%
Cc1ccc(C2C(=O)N(C3CCC(C)CC3)CC(=O)N2C2CC2)cc1 (stereo not given) | inconclusive: 51.2%
CCC1CCCCN1C(=O)CCCc1ccccc1 (stereo not given) | inconclusive: 33.1%
C=CCn1c(SCC(=O)NCC(=O)OCC)nnc1-c1cccc(OC)c1 | inactive: 0.482%
Cc1noc(C)c1CSc1nc2sc3c(c2c(=O)n1C)CCCC3 | inactive: 11.4%
Cc1cccc(NCC(=O)N/N=C\c2cccn2C)c1 | inconclusive: 30.1%
CCCCNc1c(-c2ccc(OC)c(SC3CCCCC3)c2)nc2cc(C)ccn12 | active: 87.7%
CC(C)C(=O)OCc1cn(-c2ccc(Cl)c(Cl)c2)nn1 | inconclusive: 70.1%
CCOC(=O)C1(CCOc2ccccc2)CCN(Cc2ccc(OC)c(O)c2)CC1 | inactive: 0.865%
Cc1cc2c(cc1C)C(c1cccc([N+](=O)[O-])c1)CC(=O)N2 (stereo not given) | inconclusive: 31.1%
